Reference: PMC4359733
Changes are numbered by the printed parent chain. These are yes or no findings as the source states them, for the method shown. Binding seen in cells or lysates may run through a third protein. Some results given as binding are weak or reduced against the parent protein; the word gives no strength. Sequences can lack the tags named with a protein.

B1: T7-tagged full-length Varp (pEF-T7-Varp) (protein, UniProt Q3UMR0 1-1048)
chain: MALYDEDLLKNPFYLALQKWRPDLCSKVAQIHGIVLVPCRGSLPGSVQASCQFESYVLVPTEGHFQTLDGKAVVIEGNRIKLGAGFACLLSVPILFEETFYNEKEESFSILCIAHPLERRETSEEPSAPADPFSLKTIEDVREFLGRHSEKFDKNIASFHRTFRECERKSLRHHIDSVNALYTKCLQQLLRDSHLKVLAKQEAQMNLMKQAVEMYVHHDIYDLIFKYVGTMEASEDAAFNKITRSLQDLQQKDIGVKPEFSFNIPRAKRELGQLNKCTSPQQKLLCLRKVVQLMTQSPSQRVNLETMCADDLLSVLLYLLVKTEIPNWMANLSYIKNFRFSSSAKDELGYCLTSVEAAIEYIRQGSLSTKTPDAEGFGDRLFLKQRMNLLSQMTSTPIDCLFKHIASGNQKEVERLLSQDDQDKDAMQKMCHPLCSCEDCEKLISGRLNDPSVVTPFSRDDRGQTPLHVAALCGQASLIDFLVSKGAVVNATDYHGSTPLHLACQKGFQSVTLLLLHYKASTEVQDNNGNTPLHLACTYGQEDCVKALVYYDVQACRLDIGNEKGDTALHIAARWGYEGIIETLLQNGAPTAVQNRLKETPLKCALNSKILSIMEAHHLSSDRRPRPSEVPAQSPTRSVDSISQGSSTSSFSSISVSFRQEEVKKDYREVEKLLRAVADGDLEMVRYLLEWTEDDLDDVEDAISTVDLEFCHPLCQCPKCAPAQKLARISANGLSVNVTNQDGFSPLHMAALHGRTDLVPLLLKHGAYSGARNTSQAVPLHLACQQGHFQVAKCLLDSNAKPNKKDLSGNTPLICACSAGHHEVAALLLQHGASINACNNKGNTALHEAVMGRHTLVVELLLFYGASVDILNKRQYTAADCAEQDSKIMELLQVVPGCVASLDSVEEADHEGYVTVEIRRKWNPKMYNLPEEPLRRQFCLINPGGRFQERTSRETMGRDRSVPDLAGRSLQEPEKQRVTGKQSDLSDLSRYQTSEEGNKGLPERPVSRQAAPGHRPMVRRHTVNDAAILQVPEVTVHLTTHEASVPQS
B2: endogenous Varp in melanocytes (protein, UniProt Q3UMR0 1-1048)
chain: B1 chain

Tests used:
[1] = target: T1, FLAG-tagged Rab40C-G28N, constitutive negative mutant (mouse) (UniProt Q8VHQ4); experiment: co-IP; COS-7 cells co-transfected with pEF-T7-Varp and pEF-FLAG-Rab40C (WT, Q73L, G28N or ΔSOCS); lysis in 50 mM HEPES-KOH pH 7.2, 150 mM NaCl, 1 mM MgCl2, 1% Triton X-100; anti-FLAG tag antibody-conjugated agarose beads
T1 sequence: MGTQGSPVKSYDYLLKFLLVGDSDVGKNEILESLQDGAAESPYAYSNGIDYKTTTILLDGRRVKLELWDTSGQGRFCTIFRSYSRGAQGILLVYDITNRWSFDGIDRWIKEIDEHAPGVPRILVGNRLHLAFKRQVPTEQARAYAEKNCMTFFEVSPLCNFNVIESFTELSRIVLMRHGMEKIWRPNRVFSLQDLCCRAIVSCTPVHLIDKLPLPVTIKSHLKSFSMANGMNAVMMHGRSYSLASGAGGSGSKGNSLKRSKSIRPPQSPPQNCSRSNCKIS

[2] = target: T2, FLAG-tagged Rab40C, wild type (pEF-FLAG-Rab40C) (mouse) (UniProt Q8VHQ4); experiment: as above
T2 sequence: T1 sequence with N28G

[3] = target: T3, FLAG-tagged Rab40C-ΔSOCS, SOCS box deletion mutant (mouse) (UniProt Q8VHQ4); experiment: as above
T3 sequence: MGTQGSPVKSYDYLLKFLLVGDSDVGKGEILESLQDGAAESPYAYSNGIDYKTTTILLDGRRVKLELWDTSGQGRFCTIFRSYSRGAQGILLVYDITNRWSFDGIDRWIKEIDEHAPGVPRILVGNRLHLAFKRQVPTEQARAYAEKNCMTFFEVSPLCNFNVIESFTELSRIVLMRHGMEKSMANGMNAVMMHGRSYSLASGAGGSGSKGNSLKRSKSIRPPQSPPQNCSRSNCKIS

[4] = target: T4, FLAG-tagged Rab40C-Q73L, constitutive active mutant (mouse) (UniProt Q8VHQ4); experiment: as above
T4 sequence: T1 sequence with N28G, Q73L

[5] = target: T5, FLAG-tagged Rab40C expressed in melanocytes (mouse) (UniProt Q8VHQ4); experiment: co-IP; FLAG-tagged Rab40C and endogenous Varp in melanocytes (supplementary Fig. S2)
T5 sequence: T1 sequence with N28G

Binder	binding [1]	binding [2]	binding [3]	binding [4]	binding [5]
B1	binds weakly	binds	binds	binds	
B2					binds
